Data reported in the supplement of paper PMC6078165.
The reference is the same well before dosing, and untreated signal decays as well.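 Fibroblast labels denote human fibroblasts, mainly primary ones from uterus (C12385, HUF), lung (H6013), bone (Hs27A), adrenal (HADF) and skin (WS1), plus mammary HMF and breast cancer-associated Hs343T. Cancer cells are basal-like or mesenchymal-like triple-negative breast cancer lines. A hit is a response shift exceeding 3x replicate standard deviation. The tissue of the other fibroblasts is not given here.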 Numbered stars: 1 amine (or outer) side, 2 acyl side, 3 side chain; on linkers, the order of the positions; unused ones are H or OH. Bridge positions count the residues as written; N and C are the ends. Square brackets hold non-standard residues; d marks the D form. Peptide text beside a SMILES is read from it. I, II: the chains in the order shown. Actinocin(9to1) = Cc1c2oc3c(C)ccc(C(=O)[*:1])c3nc-2c(C(=O)[*:2])c(N)c1=O; NMeV = CN[C@H](C(=O)O)C(C)C; Sar = CNCC(=O)O

Tested on: MDAMB436
Experiment: relative JC-1 red fluorescence (viability) vs pre-drug, coculture with fibroblast (fraction); higher = more viable cancer cells
Protocol: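 JC-1 labelled TNBC cells cocultured 1:1 (1,500 cells each) with CellTrace Violet stained primary or stromal fibroblasts in 384-well plates in FluoroBrite medium, treated with one of 42 anticancer drugs at 0.1, 1, 10 or 100 uM. JC-1 red fluorescence (mitochondrial integrity in cancer cells only) was read by plate reader every 8 h for 72 h. Values are normalised to each well's pre-drug value. The stock of one drug was tenfold lower, so its dose labels may be too high.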

Cc1c2oc3c(C)ccc(C(=O)N[C@@H]4C(=O)N[C@H](C(C)C)C(=O)N5CCC[C@H]5C(=O)N(C)CC(=O)N(C)[C@@H](C(C)C)C(=O)O[C@@H]4C)c3nc-2c(C(=O)N[C@@H]2C(=O)N[C@H](C(C)C)C(=O)N3CCC[C@H]3C(=O)N(C)CC(=O)N(C)[C@@H](C(C)C)C(=O)O[C@@H]2C)c(N)c1=O [Dactinomycin] (I: T[dV]P[Sar][NMeV] / II: T[dV]P[Sar][NMeV]; ester I:1-I:C, II:1-II:C; linker I:N-II:N via Actinocin(9to1))
relative JC-1 red fluorescence
Details	8 h	16 h	24 h	32 h	40 h	48 h	56 h	64 h	72 h
0.1 µM, coculture fibroblast: C12385	0.765	0.714	0.691	0.616	0.58	0.563	0.555	0.546	0.552
0.1 µM, coculture fibroblast: H6013	0.79	0.778	0.78	0.793	0.805	0.86	0.837	0.85	0.834
0.1 µM, coculture fibroblast: H6019	0.765	0.73	0.712	0.658	0.643	0.644	0.647	0.635	0.632
0.1 µM, coculture fibroblast: H6076	0.776	0.724	0.725	0.685	0.683	0.68	0.72	0.736	0.749
0.1 µM, coculture fibroblast: H6231	0.688	0.679	0.733	0.666	0.6842	0.667	0.6846	0.6967	0.716
0.1 µM, coculture fibroblast: HADF	0.774	0.7559	0.7503	0.7333	0.75	0.801	0.765	0.773	0.763
0.1 µM, coculture fibroblast: HCFa	0.7741	0.7523	0.741	0.738	0.756	0.808	0.788	0.813	0.779
0.1 µM, coculture fibroblast: HCPF	0.7357	0.712	0.749	0.703	0.721	0.707	0.747	0.755	0.784
0.1 µM, coculture fibroblast: HHSteC	0.839	0.854	0.872	0.872	0.905	0.86136	0.832	0.791	0.892
0.1 µM, coculture fibroblast: HMF	0.725	0.687	0.692	0.661	0.678	0.663	0.708	0.726	0.765
0.1 µM, coculture fibroblast: HPFa	0.832	0.8073	0.798	0.7826	0.8061	0.863	0.842	0.8592	0.815
0.1 µM, coculture fibroblast: HUF	0.7835	0.724	0.712	0.652	0.614	0.612	0.621	0.628	0.635
0.1 µM, coculture fibroblast: Hs5	0.7379	0.728	0.763	0.726	0.756	0.75	0.796	0.781	0.802
0.1 µM, coculture fibroblast: Hs27A	0.805	0.815	0.833	0.848	0.866	0.834	0.91	0.813	0.893
0.1 µM, coculture fibroblast: Hs343T	0.762	0.719	0.706	0.669	0.663	0.648	0.654	0.667	0.677
0.1 µM, coculture fibroblast: WS1	0.756	0.723	0.725	0.66	0.643	0.631	0.638	0.644	0.66
1 µM, coculture fibroblast: C12385	0.746	0.718	0.71375	0.6468	0.6373	0.627	0.628	0.635	0.652
1 µM, coculture fibroblast: H6013	0.8052	0.779	0.763	0.766	0.775	0.8038	0.786	0.782	0.757
1 µM, coculture fibroblast: H6019	0.73328	0.687	0.665	0.6	0.578	0.576	0.561	0.561	0.558
1 µM, coculture fibroblast: H6076	0.768	0.722	0.736	0.71	0.698	0.688	0.704	0.707	0.707
1 µM, coculture fibroblast: H6231	0.758	0.702	0.755	0.692	0.701	0.683	0.699	0.689	0.684
1 µM, coculture fibroblast: HADF	0.767	0.7606	0.7501	0.74	0.78	0.838	0.793	0.809	0.783
1 µM, coculture fibroblast: HCFa	0.806	0.79	0.792	0.783	0.805	0.839	0.811	0.825	0.804
1 µM, coculture fibroblast: HCPF	0.78593	0.747	0.767	0.723	0.731	0.707	0.715	0.703	0.7
1 µM, coculture fibroblast: HHSteC	0.864	0.831	0.811	0.798	0.809	0.821	0.775	0.759	0.713
1 µM, coculture fibroblast: HMF	0.766	0.71	0.716	0.69	0.692	0.677	0.699	0.687	0.69
1 µM, coculture fibroblast: HPFa	0.844	0.8271	0.8237	0.8018	0.815	0.85	0.796	0.799	0.775
1 µM, coculture fibroblast: HUF	0.815	0.77	0.763	0.708	0.685	0.679	0.666	0.661	0.663
1 µM, coculture fibroblast: Hs5	0.8	0.768	0.778	0.748	0.76	0.733	0.764	0.745	0.754
1 µM, coculture fibroblast: Hs27A	0.802	0.775	0.776	0.792	0.792	0.792	0.803	0.816	0.753
1 µM, coculture fibroblast: Hs343T	0.784	0.737	0.732	0.705	0.71	0.687	0.689	0.683	0.693
1 µM, coculture fibroblast: WS1	0.754	0.7004	0.6806	0.619	0.598	0.592	0.58247	0.576	0.5809
